Assay results published in publication PMC9769551.
For at least one entry, the source does not settle the construct or the ends of the probe. The comparison behind a weaker result is the experiment's own reference, which may not be listed here.

Amino acid sequences for entries named in this document (tags omitted). A change or cut given only in a name is not applied to a line headed by its entry.
UniProt P0ACS9: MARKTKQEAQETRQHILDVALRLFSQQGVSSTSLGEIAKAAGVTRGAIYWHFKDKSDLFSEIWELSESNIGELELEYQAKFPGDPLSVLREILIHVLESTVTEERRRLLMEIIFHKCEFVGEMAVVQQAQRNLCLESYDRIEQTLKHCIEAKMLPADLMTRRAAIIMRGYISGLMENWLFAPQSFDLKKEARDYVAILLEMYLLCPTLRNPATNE

Target: AcrR (Escherichia coli BW25113) (UniProt P0ACS9)
Test: EMSA
Conditions: 0.4 uM AcrR, 10 mM putrescine (partial disruption); 10 mM Tris-HCl pH 7.5, 50 mM KCl, 1 mM DTT, 5 mM MgCl2, 1 ug poly(dI-dC), 0.05% NP-40, 5% glycerol, 20 uL with 25 fmol DNA; recombinant protein; residues 1-215; protein details: C-terminal 6xHis; label: 3'-biotin; probe letters rebuilt from the primers and the genome

## TGTTCATATGTAAACCTCGAGTGTCCGATTTCAAATTGGTCAATGGTCAAAAGTTAATAAACCCATTGCTGCGTTTATATTATCGTCGTGCTATGGTACATACATTCACAAATGTATGTAAATCTAACGCCTGTAAATTCACGAACATATGGCACGAAAAACCAAACAAGAAGCGCAAG (double strand) [acrABp 179 bp]
  binding result: binds more weakly
